The text below walks through data of article doi:10.1101/2021.06.23.449546.

By UniProt entry, the sequences of proteins in these tests, tags left out.
UniProt P63015: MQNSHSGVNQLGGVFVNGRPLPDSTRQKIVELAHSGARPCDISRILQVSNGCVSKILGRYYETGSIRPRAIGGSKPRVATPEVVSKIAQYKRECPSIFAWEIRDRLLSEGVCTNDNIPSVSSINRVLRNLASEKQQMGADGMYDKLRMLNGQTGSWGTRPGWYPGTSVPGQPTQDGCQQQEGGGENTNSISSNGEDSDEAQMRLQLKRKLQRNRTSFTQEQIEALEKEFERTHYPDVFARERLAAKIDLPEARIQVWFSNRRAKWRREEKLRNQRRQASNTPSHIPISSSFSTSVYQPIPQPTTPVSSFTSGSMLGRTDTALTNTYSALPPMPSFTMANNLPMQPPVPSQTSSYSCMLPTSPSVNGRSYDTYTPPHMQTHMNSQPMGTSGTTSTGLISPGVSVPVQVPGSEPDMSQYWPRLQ
UniProt P97305: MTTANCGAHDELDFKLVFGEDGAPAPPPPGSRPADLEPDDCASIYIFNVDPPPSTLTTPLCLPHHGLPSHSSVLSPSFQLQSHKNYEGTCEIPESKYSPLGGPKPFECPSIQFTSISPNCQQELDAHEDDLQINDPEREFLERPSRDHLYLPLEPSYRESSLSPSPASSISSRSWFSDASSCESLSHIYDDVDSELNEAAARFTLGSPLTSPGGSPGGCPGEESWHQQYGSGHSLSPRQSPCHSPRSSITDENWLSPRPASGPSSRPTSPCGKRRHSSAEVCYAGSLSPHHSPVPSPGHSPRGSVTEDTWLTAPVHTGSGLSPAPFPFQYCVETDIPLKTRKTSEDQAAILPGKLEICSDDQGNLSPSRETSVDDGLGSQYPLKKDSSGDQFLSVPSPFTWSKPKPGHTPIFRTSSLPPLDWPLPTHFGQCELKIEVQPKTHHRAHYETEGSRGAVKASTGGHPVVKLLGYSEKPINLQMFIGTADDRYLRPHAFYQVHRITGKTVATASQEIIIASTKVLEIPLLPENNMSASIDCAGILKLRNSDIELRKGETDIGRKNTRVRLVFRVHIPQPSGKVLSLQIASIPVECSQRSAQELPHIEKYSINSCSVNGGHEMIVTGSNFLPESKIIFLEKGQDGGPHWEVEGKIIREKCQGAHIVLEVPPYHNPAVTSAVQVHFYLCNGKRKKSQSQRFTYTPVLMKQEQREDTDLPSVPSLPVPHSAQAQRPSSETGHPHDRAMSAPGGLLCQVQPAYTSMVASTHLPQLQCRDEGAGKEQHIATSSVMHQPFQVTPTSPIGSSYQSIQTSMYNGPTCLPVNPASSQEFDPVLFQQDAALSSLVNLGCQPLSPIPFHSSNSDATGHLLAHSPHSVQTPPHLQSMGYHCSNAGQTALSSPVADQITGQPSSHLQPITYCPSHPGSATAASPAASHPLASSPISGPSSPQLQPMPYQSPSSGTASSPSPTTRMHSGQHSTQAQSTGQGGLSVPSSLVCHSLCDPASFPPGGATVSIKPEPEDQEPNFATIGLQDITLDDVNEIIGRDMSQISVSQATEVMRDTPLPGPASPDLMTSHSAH

The target of the test is PAX6 (mouse (endogenous in E14.5 brain or in EBs from mouse ES cells)) (UniProt P63015). As to the kind of experiment: co-IP.

Results are given in words; binding and its absence hold for the method and conditions named. Binding seen in cells or lysates may run through a third protein. Some entries that bind do so weakly or less than the wild type.

Regarding NFAT4 (from UniProt P97305 1-1075), the binding result is “binds”.
